# Data as given in PubChem BioAssay AID1053208 (Peter MacCallum Cancer Centre, 2014)
# Aim: 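Find knock-downs that sensitise mouse osteosarcoma cells to doxorubicin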 (primary screen)
# Cells: mouse osteosarcoma cells, early-passage culture from an engineered mouse model of fibroblastic bone tumour
# Reagents: siRNA pool against mouse genes, 40 nM
# Duration: about 120 h (48 h before drug, then 72 h with drug)
# Challenge: doxorubicin 100 nM for 72 h, roughly 30-40% inhibitory dose
# Detection: 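Luminescent ATP signal taken as viability with or without 100 nM doxorubicin for 72 h; mean of two wells set against non-targeting siRNA and turned into robust z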
# Scale: viability z-score with doxorubicin: higher = more viable cells under doxorubicin; viability z-score without drug: higher = more viable cells with knock-down alone; z-score of drug to no-drug ratio: higher = less drug sensitisation by knock-down
# Hit rule: 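a pool counts as active when its viability z-score with doxorubicin is -2 or below and its z-score without drug lies between -2 and 2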
# This is one part, drawn at random, of about 17,000 deposited reagents. Of all reagents, 788 (4.7%) were called active. 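Calls rest on z-score classes alone; an extra cut-off of viability at most 70% of control was not applied to them.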 The numbers tell different reagents against one gene apart. Not all columns of the deposit are shown. No sequences are given here.
gene,pool no.,combined z-score class,viability z-score with doxorubicin,viability z-score without drug,z-score of drug to no-drug ratio,Outcome
Magea3 (MAGE family member A3),1,no change with or without drug,-1.24,-0.17,-1.12,inactive
Btrc (beta-transducin repeat containing protein),1,no change with or without drug,-0.22,-0.51,0.22,inactive
Parm1 (prostate androgen-regulated mucin-like protein 1),1,no change with or without drug,-0.34,-0.34,0,inactive
Or10c1 (olfactory receptor family 10 subfamily C member 1),1,no change with or without drug,-1.8,-1.18,-1.01,inactive
Tyr (tyrosinase),1,no change with or without drug,0.67,1.69,-0.34,inactive
Rims4 (regulating synaptic membrane exocytosis 4),1,no change with or without drug,0,0.84,-0.45,inactive
Chst9 (carbohydrate sulfotransferase 9),1,no change with or without drug,0.9,1.52,0,inactive
Cpa6 (carboxypeptidase A6),1,no change with or without drug,-0.45,0.34,-0.56,inactive
Cys1 (cystin 1),1,no change with or without drug,0,0.17,0,inactive
Egr3 (early growth response 3),1,no change with or without drug,-0.9,0.84,-1.35,inactive
Lilrb4a,1,no change with or without drug,-0.67,0.17,-0.67,inactive
"Vmn2r-ps54 (vomeronasal 2, receptor, pseudogene 54)",1,low cell count without drug only,-1.01,-2.02,0.45,inactive
Zpbp2 (zona pellucida binding protein 2),1,no change with or without drug,0.11,1.85,-0.9,inactive
Necab1 (N-terminal EF-hand calcium binding protein 1),1,no change with or without drug,-0.22,0.84,-0.67,inactive
Mindy4 (MINDY lysine 48 deubiquitinase 4),1,no change with or without drug,-0.45,0.17,-0.45,inactive
Dpp6 (dipeptidylpeptidase 6),1,no change with or without drug,0.22,0.51,0,inactive
Dpp6 (dipeptidylpeptidase 6),2,no change with or without drug,-0.45,-0.17,-0.22,inactive
Fzd2 (frizzled class receptor 2),1,no change with or without drug,-1.57,-1.18,-0.79,inactive
Pxn (paxillin),1,no change with or without drug,0,-0.84,0.67,inactive
Nup37 (nucleoporin 37),1,no change with or without drug,0.56,-1.01,1.46,inactive
Rho (rhodopsin),1,no change with or without drug,0.45,-1.01,1.35,inactive
Krt25 (keratin 25),1,no change with or without drug,1.24,-1.01,2.25,inactive
Morc1 (microrchidia 1),1,low cell count with doxorubicin only,-2.02,0.17,-2.14,active
Or8b51 (olfactory receptor family 8 subfamily B member 51),1,no change with or without drug,1.12,-0.17,1.46,inactive
Slc9b2,1,low cell count with doxorubicin only,-2.02,-0.17,-1.91,active
Csrp1 (cysteine and glycine-rich protein 1),1,no change with or without drug,1.12,0.84,0.67,inactive
"Rfx2 (regulatory factor X, 2 (influences HLA class II expression))",1,no change with or without drug,-0.45,-0.51,0,inactive
Itgb1bp2 (integrin beta 1 binding protein 2),1,no change with or without drug,-0.79,-1.01,0,inactive
Slx1b (structure-specific endonuclease subunit SLX1B),1,no change with or without drug,-0.22,1.01,-0.79,inactive
"Tubgcp3 (tubulin, gamma complex component 3)",1,no change with or without drug,-1.12,-1.52,0,inactive
"Iws1 (IWS1, SUPT6 interacting protein)",1,high cell count with and without drug,2.14,2.36,0.67,inactive
Acsm1 (acyl-CoA synthetase medium-chain family member 1),1,no change with or without drug,0,0.51,-0.22,inactive
"Prim1 (DNA primase, p49 subunit)",1,no change with or without drug,0.9,1.18,0.22,inactive
Dnajc9 (DnaJ heat shock protein family (Hsp40) member C9),1,no change with or without drug,0.9,1.18,0.22,inactive
